# Laboratory results taken from patent US4284621A, “Agents for protection against light” (Bayer Aktiengesellschaft, priority 1978, dated 1981).
# For at least one compound, name, drawing or mass did not settle the structure.
# Assay: UV absorption spectral data (wavelength λmax, molar extinction ε, specific extinction E1^1)
# Format: physicochemical
# Details: Table II
smiles,measurement,setting,value
"COc1ccc(C(=O)CC(=O)c2ccc(OC)cc2)cc1 [(3), dianisoylmethane]",Specific extinction E1^1,,"1,270"
same,Wavelength λmax (nm),,362 nm
same,Molar extinction ε,in M-1cm-1,"36,000"
same,"specific extinction (in words, compared with compounds of formula I)",comparison with compounds of formula I,high specific extinction
